Assay results published in PubChem BioAssay AID1671190 (National Center for Advancing Translational Sciences (NCATS), 2021).
In all, about 580,000 compounds went through this assay and about 6,100 (1.1%) were called active. Inconclusive results, whose numbers are uncertain, are shown with a selection of clear calls. Calls follow the shape of the dose curve; as a rule, active = well fitted inhibition curve with a large enough effect; inconclusive = small, poorly fitted or top-dose-only effect, or another doubt; inactive = no such curve, though single readings can be large or run the other way. A potency beside an inconclusive call is a rough fit, not a confirmed value.

Protein sequences, listed by entry. Tags and fused reporters are not part of them. Lines headed by an entry give the natural chain unless they say otherwise; changes in a name come on top.
UniProt P18054: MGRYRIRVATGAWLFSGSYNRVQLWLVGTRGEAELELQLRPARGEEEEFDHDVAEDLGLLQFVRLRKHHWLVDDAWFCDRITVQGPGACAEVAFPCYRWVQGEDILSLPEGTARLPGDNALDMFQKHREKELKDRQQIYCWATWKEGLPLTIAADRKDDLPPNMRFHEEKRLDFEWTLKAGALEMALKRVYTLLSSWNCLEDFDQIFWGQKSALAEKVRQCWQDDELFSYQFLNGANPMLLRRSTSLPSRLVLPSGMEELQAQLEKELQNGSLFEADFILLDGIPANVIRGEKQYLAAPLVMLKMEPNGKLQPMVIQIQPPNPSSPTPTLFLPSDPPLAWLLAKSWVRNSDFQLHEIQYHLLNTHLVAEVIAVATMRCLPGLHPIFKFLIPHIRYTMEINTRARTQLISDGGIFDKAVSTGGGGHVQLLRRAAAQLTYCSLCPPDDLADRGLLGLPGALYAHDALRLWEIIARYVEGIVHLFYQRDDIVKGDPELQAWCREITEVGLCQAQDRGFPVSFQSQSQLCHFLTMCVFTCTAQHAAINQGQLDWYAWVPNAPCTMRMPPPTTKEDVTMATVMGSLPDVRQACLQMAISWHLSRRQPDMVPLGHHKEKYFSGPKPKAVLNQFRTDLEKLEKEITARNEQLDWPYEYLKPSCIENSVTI

These molecules were tested against Polyunsaturated fatty acid lipoxygenase ALOX12 (Homo sapiens) (UniProt P18054) (assay: Primary qHTS assay for inhibitors of human arachidonate 12S-lipoxygenase (ALOX12): Round 2). Settings: purified 12hLO, xylenol orange hydroperoxide absorbance; activity change, negative = inhibition: at 108 µM (top of the series) unless noted.
Summary of the method: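 Hydroperoxide product was detected by ferrous iron/xylenol orange as the 573 to 405 nm absorbance ratio. Arachidonic acid at 40 uM (final) was turned over for 30 min at room temperature by 150 nM human 12hLO, pH 7.0 Hepes buffer, after 15 min compound preincubation.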
% is scaled to controls: 0 for no effect and ±100 for the full control effect; potency is read from the fitted curve at half-maximal effect.

Row | SMILES | Potency | activity change, negative = inhibition
1 | O=C(Nc1ccncc1)Nc1ccccc1Cl | inconclusive: 50.1 µM [inhibitor, single point] | –
2 | C[C@@H](NC(=O)Cc1ccccc1)c1c(-c2ccc(Cl)cc2)noc1C(=O)O | inconclusive: 28.2 µM [inhibitor, full curve] | –
3 | O=C(c1cc(C(F)(F)F)cc(C(F)(F)F)c1)N1CCC2(CCCN(c3ccccc3)C2)CC1 | inconclusive: 31.6 µM [inhibitor, single point] | –
4 | COc1cc(-c2noc(C)c2C(=O)NCc2ccc3c(c2)OCO3)cc(OC)c1OC | inconclusive: 3.98 µM [inhibitor, full curve, poor fit] | –
5 | Cc1oc(C(C)(C)C)cc1C(=O)Nc1ccc(N2CCOCC2)cc1 | inconclusive: 112 µM [inhibitor, single point] | –
6 | O=[S+]([O-])(c1ccccc1)N1CCn2c(nnc2-c2ccncc2)C1 | – | inactive: 7.78% [at 176 µM]
7 | CCCCNc1c(C(=O)OCC)c(C)nc2c1cnn2CC | inconclusive: 35.5 µM [inhibitor, partial curve, poor fit] | –
8 | CC(C)(C)C(=O)CSc1ncccn1 | inconclusive: 44.7 µM [inhibitor, partial curve, poor fit] | –
9 | N#C/C(=C\C=C\c1ccccc1[N+](=O)[O-])c1nc(-c2ccc3c(c2)OCO3)cs1 | inconclusive: 22.4 µM [inhibitor, full curve, poor fit] | –
10 | O=c1nc2sc3ccccc3n2c(=O)n1-c1ccc(Cl)cc1 | – | inactive: 0%
11 | O=C(CN1C(=O)NC(c2ccc(Cl)cc2)C2=C1COC2=O)Nc1ccc(Br)cc1F (stereo not given) | active: 4.47 µM | –
12 | Cc1ccc(NC(=O)Cc2ccc3c(c2)OCCO3)cc1S(=O)(=O)N1CCCCC1 | inconclusive: 50.1 µM [inhibitor, partial curve, poor fit] | –
13 | Cc1cc(OCCCN2CCC(C(O)(c3ccccc3)c3ccccc3)CC2)ccc1Br | inconclusive: 44.7 µM [inhibitor, partial curve, poor fit] | –
14 | C[C@H](CO)N1C[C@H](C)[C@@H](CN(C)C(=O)Nc2ccc3c(c2)OCO3)Oc2c(NC(=O)Nc3ccc(C(F)(F)F)cc3)cccc2C1=O | – | inactive: -25.8%
15 | CCOc1cc2nc(-c3ccc(OC)c(OC)c3)nc(N3CCC(C)CC3)c2cc1OC | inconclusive: 126 µM [inhibitor, partial curve, poor fit] | –
16 | CCOC(=O)C1CCCN(C(=O)c2ccc3nc(-c4ccc(OC)c(OC)c4)c(-c4ccc(OC)c(OC)c4)nc3c2)C1 (stereo not given) | – | inactive: -9.95%
17 | N#Cc1c(NC(=O)CSc2nc(C(F)(F)F)nc3ccccc23)sc2c1CCC2 | inconclusive: 63.1 µM [inhibitor, partial curve, poor fit] | –
18 | CSc1nsc(/C=C/Nc2ccc(C(=O)O)cc2)c1C#N | inconclusive: 44.7 µM [inhibitor, partial curve, poor fit] | –
19 | Cc1ccc(OCCCCN2CCCCC2)cc1 | – | inactive: 21%
20 | C=CCOCC(O)Cn1c(N2CCCC2)nc2c1c(=O)[nH]c(=O)n2C (stereo not given) | inconclusive: 35.5 µM [inhibitor, partial curve, poor fit] | –

Row | SMILES | Potency | activity change, negative = inhibition
21 | CC1Sc2c(C(C)(C)C)cc(C(C)(C)C)c(O)c2OC1=O (stereo not given) | inconclusive: 28.2 µM [inhibitor, partial curve, poor fit] | –
22 | COCCN(CCOC)C(=O)C(C)(C)c1ccccc1 | – | inconclusive: -40.8% [inhibitor]
23 | O=C(O)c1cnc(NCc2ccccn2)nc1-c1ccncc1 | inconclusive: 10 µM [inhibitor, full curve] | –
24 | CCC1(CC)C(=O)NC(=S)N=C1N | inconclusive: 44.7 µM [inhibitor, partial curve, poor fit] | –
25 | CCc1ccc(S(=O)(=O)Nc2ccc(N3CCCS3(=O)=O)cc2)s1 | inconclusive: 126 µM [inhibitor, single point] | –
26 | CCC/C(=C1/C(=O)CC(C)(C)C(C(=O)OC)C1=O)N1CCCC1 (stereo not given) | inconclusive: 35.5 µM [inhibitor, partial curve, poor fit] | –
27 | COc1cc(CN2CCC(C(=O)N3CCN(c4ccccc4F)CC3)CC2)cc(OC)c1O | active: 2.51 µM | –
28 | CCn1c(-n2nc(C)cc2C)nc2c1c(=O)n(Cc1ccc(F)cc1)c(=O)n2C | inconclusive: 100 µM [inhibitor, single point] | –
29 | Cc1cc(Cl)ccc1-c1ccc(C=O)cc1 | inconclusive: 35.5 µM [inhibitor, full curve, poor fit] | –
30 | COc1ccccc1-c1c(C)oc2cc(OCC#N)ccc2c1=O | – | inactive: -24.1%
31 | CC(OC(=O)c1cccc(S(=O)(=O)N2CCCCC2)c1)C(=O)N1CCCc2ccccc21 (stereo not given) | – | inactive: -4.33%
32 | Cc1ccc(S(=O)(=O)N2CCC(=O)N(CCOC(=O)Nc3ccc(F)cc3)CC2)cc1 | inconclusive: 112 µM [inhibitor, single point] | –
33 | COc1cc(C(=O)OCCNC(=O)c2cccnc2)cc(OC)c1OC | inconclusive: 6.31 µM [inhibitor, full curve, poor fit] | –
34 | CC(C)(C)CC(=O)N1C[C@@H]2C[C@H]1C(=O)N(CC1CC1)c1ccccc1O2 | inconclusive: 79.4 µM [inhibitor, full curve, poor fit] | –
35 | O=C1C=CC(=O)N1c1ccc2c(c1)C(NC(=O)C(F)(F)F)c1ccccc1-2 (stereo not given) | inconclusive: 1.78 µM [inhibitor, full curve, poor fit] | –
36 | CCCCN1C(Nc2ccccc2)=NC[C@@H]1C | inconclusive: 7.94 µM [inhibitor, full curve, poor fit] | –
37 | CCNc1nc2[nH]c(=O)c3c(c2s1)OC(N)=C(C#N)C3c1ccc(C)cc1 (stereo not given) | – | inactive: 0%
38 | Cc1cc(=O)oc2cc(OCC(=O)NC3CCCc4c3[nH]c3ccccc43)ccc12 (stereo not given) | inconclusive: 50.1 µM [inhibitor, partial curve, poor fit] | –
39 | CCOC(=O)c1nn(-c2ccc(OC)cc2)c(=O)c2c(N)scc12 | inconclusive: 2.51 µM [inhibitor, full curve, poor fit] | –
40 | COc1ccc(OC)c(NC(=O)c2cc3c(cc2Cl)N2CCCCCC2=NS3(=O)=O)c1 | inconclusive: 89.1 µM [inhibitor, single point] | –

Filtered by structure: those above with bromine (2)
Row | SMILES | Potency | activity change, negative = inhibition
11 | O=C(CN1C(=O)NC(c2ccc(Cl)cc2)C2=C1COC2=O)Nc1ccc(Br)cc1F (stereo not given) | active: 4.47 µM | –
13 | Cc1cc(OCCCN2CCC(C(O)(c3ccccc3)c3ccccc3)CC2)ccc1Br | inconclusive: 44.7 µM [inhibitor, partial curve, poor fit] | –
